Measured values taken from doi:10.1101/2025.10.20.683344.
Results are given in words; binding and its absence hold for the method and conditions named. For part of these data: In cells and extracts the contact can be indirect. Some results given as binding are weak or reduced against the parent protein; the word gives no strength. For part of these data: Tags and fused reporters may be left off the sequences shown.

Experiments:
[1] = molecular target: OsERS1 (ETHYLENE RESPONSE SENSOR 1), split-luciferase fusions (rice (Oryza sativa)) (UniProt Q53RH0); assay: split reporter
[2] = molecular target: OsERS1 (ETHYLENE RESPONSE SENSOR 1), FLAG- and GFP-tagged copies for co-immunoprecipitation (rice (Oryza sativa)) (UniProt Q53RH0); assay: co-IP
[3] = molecular target: OsERS1 in membrane fractions of N. benthamiana leaves (rice (Oryza sativa)) (UniProt Q53RH0); assay: Western blot with and without reductant

B1: OsERS1 (ETHYLENE RESPONSE SENSOR 1), split-luciferase fusions (receptor, UniProt Q53RH0 1-636)
chain: MDGCDCIEPLWPTDELLIKYQYISDFFIALAYFSIPLELIYFVKKSSFFPYRWVLIQFGAFIVLCGATHLINLWTFTTHTKTVAMVMTVAKVSTAVVSCATALMLVHIIPDLLSVKTRELFLKNKAEQLDREMGLIRTQEETGRHVRMLTHEIRSTLDRHTILKTTLVELGGTLGLEECALWMPSRSGSSLQLSHTLRHQITVGSTVSINLPVVNQVFSSNRAIIIPHTSPLARIRPLAGRYVPPEVAAVRVPLLHLSNFQINDWPELSAKSYAIMVLMLPSDSARKWHVHELELVEVVADQVAVALSHAAILEESMRARDLLMEQNVALDLARREAEMAIRARNDFLAVMNHEMRTPMNAIIALSSLLLETELTPEQRLMVETVLKSSNLLATLINDVLDLSKLEDGSLELEIKAFNLHAVFKEVMSFIKPIAAIKRLSVSVMLAPDLPLCAIGDEKRLMQTILNISGNAVKFTKEGHITLVASVVKADSLREFRTPDFHPTASDDNFYLKVQIKDTGCGISPQDLPQVFTKFAQSQPGGNRGYSGSGLGLAICKRFVTLMGGHIWLDSEGTGRGCTVTFVIQLGICDNTNAYQQKLIPLVWPSSGDADFVGPVPNAPNEEKGQASLKSRYQRSI
- binding [1]: binds

B2: OsERS1 (ETHYLENE RESPONSE SENSOR 1), FLAG- and GFP-tagged copies for co-immunoprecipitation (receptor, UniProt Q53RH0 1-636)
chain: MDGCDCIEPLWPTDELLIKYQYISDFFIALAYFSIPLELIYFVKKSSFFPYRWVLIQFGAFIVLCGATHLINLWTFTTHTKTVAMVMTVAKVSTAVVSCATALMLVHIIPDLLSVKTRELFLKNKAEQLDREMGLIRTQEETGRHVRMLTHEIRSTLDRHTILKTTLVELGGTLGLEECALWMPSRSGSSLQLSHTLRHQITVGSTVSINLPVVNQVFSSNRAIIIPHTSPLARIRPLAGRYVPPEVAAVRVPLLHLSNFQINDWPELSAKSYAIMVLMLPSDSARKWHVHELELVEVVADQVAVALSHAAILEESMRARDLLMEQNVALDLARREAEMAIRARNDFLAVMNHEMRTPMNAIIALSSLLLETELTPEQRLMVETVLKSSNLLATLINDVLDLSKLEDGSLELEIKAFNLHAVFKEVMSFIKPIAAIKRLSVSVMLAPDLPLCAIGDEKRLMQTILNISGNAVKFTKEGHITLVASVVKADSLREFRTPDFHPTASDDNFYLKVQIKDTGCGISPQDLPQVFTKFAQSQPGGNRGYSGSGLGLAICKRFVTLMGGHIWLDSEGTGRGCTVTFVIQLGICDNTNAYQQKLIPLVWPSSGDADFVGPVPNAPNEEKGQASLKSRYQRSI
- binding [2]: binds

B3: OsERS1 in membrane fractions of N. benthamiana leaves (receptor, UniProt Q53RH0 1-636)
chain: MDGCDCIEPLWPTDELLIKYQYISDFFIALAYFSIPLELIYFVKKSSFFPYRWVLIQFGAFIVLCGATHLINLWTFTTHTKTVAMVMTVAKVSTAVVSCATALMLVHIIPDLLSVKTRELFLKNKAEQLDREMGLIRTQEETGRHVRMLTHEIRSTLDRHTILKTTLVELGGTLGLEECALWMPSRSGSSLQLSHTLRHQITVGSTVSINLPVVNQVFSSNRAIIIPHTSPLARIRPLAGRYVPPEVAAVRVPLLHLSNFQINDWPELSAKSYAIMVLMLPSDSARKWHVHELELVEVVADQVAVALSHAAILEESMRARDLLMEQNVALDLARREAEMAIRARNDFLAVMNHEMRTPMNAIIALSSLLLETELTPEQRLMVETVLKSSNLLATLINDVLDLSKLEDGSLELEIKAFNLHAVFKEVMSFIKPIAAIKRLSVSVMLAPDLPLCAIGDEKRLMQTILNISGNAVKFTKEGHITLVASVVKADSLREFRTPDFHPTASDDNFYLKVQIKDTGCGISPQDLPQVFTKFAQSQPGGNRGYSGSGLGLAICKRFVTLMGGHIWLDSEGTGRGCTVTFVIQLGICDNTNAYQQKLIPLVWPSSGDADFVGPVPNAPNEEKGQASLKSRYQRSI
- binding [3]: binds
